# Assay results as given in the supplement of paper PMC10849652.
# Protein sequences, listed by entry. Tags and fused reporters are not part of them. Lines headed by an entry give the natural chain unless they say otherwise; changes in a name come on top.
# UniProt Q86UA1: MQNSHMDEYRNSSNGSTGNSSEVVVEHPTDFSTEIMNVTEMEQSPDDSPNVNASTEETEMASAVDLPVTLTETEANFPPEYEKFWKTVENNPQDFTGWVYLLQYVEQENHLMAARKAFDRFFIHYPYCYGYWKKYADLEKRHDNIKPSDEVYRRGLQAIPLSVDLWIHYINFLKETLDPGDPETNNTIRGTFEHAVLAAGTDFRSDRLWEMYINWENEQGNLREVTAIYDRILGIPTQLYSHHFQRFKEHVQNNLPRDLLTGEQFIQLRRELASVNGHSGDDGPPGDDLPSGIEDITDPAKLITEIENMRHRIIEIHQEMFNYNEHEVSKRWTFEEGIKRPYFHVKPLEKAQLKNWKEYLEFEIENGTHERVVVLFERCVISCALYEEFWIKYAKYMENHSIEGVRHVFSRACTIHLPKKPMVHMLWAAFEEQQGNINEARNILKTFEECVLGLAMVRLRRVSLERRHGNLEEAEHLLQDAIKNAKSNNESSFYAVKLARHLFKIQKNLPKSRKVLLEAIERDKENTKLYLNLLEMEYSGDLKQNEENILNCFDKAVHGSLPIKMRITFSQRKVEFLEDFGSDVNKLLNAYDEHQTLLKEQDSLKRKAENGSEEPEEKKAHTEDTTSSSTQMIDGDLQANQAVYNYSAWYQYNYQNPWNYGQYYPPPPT
# UniProt Q9UGJ0: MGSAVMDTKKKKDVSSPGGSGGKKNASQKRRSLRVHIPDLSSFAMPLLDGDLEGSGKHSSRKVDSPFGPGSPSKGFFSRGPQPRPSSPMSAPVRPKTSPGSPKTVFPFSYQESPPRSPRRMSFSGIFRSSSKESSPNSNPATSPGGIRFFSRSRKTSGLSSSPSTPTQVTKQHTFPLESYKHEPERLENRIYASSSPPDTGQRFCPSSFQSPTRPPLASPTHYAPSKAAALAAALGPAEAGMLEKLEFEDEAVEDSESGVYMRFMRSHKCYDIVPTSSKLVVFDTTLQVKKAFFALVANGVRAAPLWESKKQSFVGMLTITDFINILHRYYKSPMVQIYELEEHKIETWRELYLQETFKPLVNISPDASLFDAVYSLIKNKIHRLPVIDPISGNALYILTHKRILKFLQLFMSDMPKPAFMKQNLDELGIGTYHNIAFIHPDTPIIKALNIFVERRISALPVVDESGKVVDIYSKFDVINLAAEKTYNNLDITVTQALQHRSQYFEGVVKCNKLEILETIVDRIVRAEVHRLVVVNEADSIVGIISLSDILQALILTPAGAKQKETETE
# UniProt Q12972: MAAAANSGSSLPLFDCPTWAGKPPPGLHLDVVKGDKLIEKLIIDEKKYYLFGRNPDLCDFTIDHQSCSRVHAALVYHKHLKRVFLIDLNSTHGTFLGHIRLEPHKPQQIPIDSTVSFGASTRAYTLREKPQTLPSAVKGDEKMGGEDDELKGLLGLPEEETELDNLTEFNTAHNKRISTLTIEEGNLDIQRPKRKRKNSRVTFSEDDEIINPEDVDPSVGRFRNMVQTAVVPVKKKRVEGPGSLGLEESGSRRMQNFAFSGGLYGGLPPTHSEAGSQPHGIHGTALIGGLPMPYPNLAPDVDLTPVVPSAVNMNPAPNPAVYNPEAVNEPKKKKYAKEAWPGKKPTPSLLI
# UniProt O43172: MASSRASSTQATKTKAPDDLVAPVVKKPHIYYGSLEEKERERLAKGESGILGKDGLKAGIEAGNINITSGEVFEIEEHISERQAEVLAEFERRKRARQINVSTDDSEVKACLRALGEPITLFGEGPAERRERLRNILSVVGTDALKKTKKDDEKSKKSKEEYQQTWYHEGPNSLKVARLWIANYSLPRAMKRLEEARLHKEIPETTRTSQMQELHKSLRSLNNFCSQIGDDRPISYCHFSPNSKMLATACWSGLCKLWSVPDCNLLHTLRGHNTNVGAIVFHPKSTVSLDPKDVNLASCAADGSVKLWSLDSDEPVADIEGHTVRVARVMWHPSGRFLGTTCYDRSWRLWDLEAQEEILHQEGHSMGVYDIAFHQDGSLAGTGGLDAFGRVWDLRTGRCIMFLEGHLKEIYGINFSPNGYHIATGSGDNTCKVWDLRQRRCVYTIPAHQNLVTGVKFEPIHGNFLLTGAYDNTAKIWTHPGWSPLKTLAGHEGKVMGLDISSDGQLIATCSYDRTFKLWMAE
# UniProt P48454, whole entry, looked up: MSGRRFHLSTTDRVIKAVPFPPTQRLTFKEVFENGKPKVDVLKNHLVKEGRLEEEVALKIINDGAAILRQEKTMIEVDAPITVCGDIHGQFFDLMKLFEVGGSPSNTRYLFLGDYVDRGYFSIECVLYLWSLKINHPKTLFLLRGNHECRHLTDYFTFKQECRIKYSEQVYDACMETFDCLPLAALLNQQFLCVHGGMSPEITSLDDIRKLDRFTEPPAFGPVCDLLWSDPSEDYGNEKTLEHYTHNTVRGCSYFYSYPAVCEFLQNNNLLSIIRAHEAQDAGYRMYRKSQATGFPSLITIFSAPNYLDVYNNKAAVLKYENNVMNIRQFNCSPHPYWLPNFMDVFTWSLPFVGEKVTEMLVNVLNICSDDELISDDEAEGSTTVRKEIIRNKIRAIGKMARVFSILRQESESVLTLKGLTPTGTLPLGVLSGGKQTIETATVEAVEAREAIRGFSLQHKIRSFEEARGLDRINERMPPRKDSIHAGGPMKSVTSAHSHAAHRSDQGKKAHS
# UniProt P49642: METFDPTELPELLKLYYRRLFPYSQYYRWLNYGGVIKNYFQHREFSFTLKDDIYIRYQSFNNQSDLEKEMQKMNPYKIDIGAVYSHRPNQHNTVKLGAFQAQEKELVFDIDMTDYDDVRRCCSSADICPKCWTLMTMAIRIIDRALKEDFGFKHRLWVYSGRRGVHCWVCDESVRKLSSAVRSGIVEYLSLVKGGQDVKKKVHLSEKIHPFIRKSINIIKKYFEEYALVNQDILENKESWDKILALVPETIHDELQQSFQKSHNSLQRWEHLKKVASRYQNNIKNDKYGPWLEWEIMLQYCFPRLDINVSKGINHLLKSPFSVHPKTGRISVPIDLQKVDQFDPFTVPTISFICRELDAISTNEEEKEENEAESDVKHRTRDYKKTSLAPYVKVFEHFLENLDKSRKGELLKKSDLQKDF
# UniProt P30405: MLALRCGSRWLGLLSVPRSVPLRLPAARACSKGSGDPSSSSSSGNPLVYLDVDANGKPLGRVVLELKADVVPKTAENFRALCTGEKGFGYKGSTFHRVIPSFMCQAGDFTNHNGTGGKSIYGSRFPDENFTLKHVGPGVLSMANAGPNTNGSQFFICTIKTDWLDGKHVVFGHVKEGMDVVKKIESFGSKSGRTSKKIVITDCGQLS
# UniProt Q9BZL6: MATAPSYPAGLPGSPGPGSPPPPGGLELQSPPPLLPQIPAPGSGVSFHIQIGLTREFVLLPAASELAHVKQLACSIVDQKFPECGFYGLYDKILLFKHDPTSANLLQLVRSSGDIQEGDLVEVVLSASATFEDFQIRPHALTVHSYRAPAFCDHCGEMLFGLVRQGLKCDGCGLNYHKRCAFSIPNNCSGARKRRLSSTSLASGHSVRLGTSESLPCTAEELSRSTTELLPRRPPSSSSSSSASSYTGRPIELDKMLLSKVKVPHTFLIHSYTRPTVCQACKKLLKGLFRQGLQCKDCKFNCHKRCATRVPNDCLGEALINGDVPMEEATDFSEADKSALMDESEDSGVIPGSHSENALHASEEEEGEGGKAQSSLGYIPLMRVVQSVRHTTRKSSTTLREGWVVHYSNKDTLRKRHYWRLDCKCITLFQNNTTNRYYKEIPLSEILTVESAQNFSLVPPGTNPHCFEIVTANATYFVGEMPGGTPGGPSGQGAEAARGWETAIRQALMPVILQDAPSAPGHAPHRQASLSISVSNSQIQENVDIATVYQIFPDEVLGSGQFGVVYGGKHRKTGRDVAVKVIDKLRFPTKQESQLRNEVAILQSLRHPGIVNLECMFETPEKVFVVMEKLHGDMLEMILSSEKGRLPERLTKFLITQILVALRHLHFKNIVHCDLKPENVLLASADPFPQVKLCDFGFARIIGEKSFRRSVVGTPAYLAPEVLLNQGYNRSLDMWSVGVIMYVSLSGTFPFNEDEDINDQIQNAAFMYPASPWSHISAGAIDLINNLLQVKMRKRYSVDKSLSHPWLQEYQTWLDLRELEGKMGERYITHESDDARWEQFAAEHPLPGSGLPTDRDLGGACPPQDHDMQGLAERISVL
# UniProt Q13162: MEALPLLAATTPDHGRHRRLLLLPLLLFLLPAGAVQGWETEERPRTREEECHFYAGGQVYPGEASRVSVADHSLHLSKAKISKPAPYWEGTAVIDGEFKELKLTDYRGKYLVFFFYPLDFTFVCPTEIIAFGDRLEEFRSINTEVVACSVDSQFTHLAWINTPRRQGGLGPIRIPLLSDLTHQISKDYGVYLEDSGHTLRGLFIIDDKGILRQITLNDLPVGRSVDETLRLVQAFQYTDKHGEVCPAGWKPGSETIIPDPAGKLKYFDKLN
# UniProt Q9BZL4: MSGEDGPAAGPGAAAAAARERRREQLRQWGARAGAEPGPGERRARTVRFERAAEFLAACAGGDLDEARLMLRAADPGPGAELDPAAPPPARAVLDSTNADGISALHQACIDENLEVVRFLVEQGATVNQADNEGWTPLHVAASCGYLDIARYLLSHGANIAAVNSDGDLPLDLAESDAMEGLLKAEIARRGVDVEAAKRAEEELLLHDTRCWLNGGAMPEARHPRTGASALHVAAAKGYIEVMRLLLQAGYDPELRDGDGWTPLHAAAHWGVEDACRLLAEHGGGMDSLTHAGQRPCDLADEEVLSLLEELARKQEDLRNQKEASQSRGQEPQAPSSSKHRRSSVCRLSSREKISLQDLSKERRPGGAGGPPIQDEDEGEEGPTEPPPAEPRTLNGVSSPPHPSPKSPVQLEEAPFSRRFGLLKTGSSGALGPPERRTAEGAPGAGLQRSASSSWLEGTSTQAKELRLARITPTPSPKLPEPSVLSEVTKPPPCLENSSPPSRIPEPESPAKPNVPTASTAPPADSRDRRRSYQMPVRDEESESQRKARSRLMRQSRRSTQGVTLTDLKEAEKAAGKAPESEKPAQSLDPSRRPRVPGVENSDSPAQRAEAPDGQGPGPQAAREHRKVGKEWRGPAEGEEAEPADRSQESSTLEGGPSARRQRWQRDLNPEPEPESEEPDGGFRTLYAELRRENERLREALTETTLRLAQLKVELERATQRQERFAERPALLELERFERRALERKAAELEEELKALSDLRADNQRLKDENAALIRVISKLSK
# UniProt P62140, whole entry, looked up: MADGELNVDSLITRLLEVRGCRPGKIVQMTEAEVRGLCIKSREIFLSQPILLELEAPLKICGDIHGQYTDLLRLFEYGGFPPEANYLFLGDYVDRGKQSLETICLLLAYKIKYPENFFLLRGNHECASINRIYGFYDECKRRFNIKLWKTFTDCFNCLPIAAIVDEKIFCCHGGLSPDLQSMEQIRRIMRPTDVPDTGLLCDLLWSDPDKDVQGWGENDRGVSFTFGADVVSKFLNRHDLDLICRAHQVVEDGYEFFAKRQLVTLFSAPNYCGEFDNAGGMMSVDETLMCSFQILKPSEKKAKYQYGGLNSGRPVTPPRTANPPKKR
# UniProt P50897: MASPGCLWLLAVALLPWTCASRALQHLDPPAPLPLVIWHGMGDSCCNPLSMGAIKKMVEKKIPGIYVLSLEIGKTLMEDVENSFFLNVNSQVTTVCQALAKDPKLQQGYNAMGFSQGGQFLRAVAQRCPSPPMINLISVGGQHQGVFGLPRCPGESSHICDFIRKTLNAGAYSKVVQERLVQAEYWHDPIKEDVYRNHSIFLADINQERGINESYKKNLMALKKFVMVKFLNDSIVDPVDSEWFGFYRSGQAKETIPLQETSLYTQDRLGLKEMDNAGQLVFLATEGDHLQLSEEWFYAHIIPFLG
# UniProt Q9HCU5: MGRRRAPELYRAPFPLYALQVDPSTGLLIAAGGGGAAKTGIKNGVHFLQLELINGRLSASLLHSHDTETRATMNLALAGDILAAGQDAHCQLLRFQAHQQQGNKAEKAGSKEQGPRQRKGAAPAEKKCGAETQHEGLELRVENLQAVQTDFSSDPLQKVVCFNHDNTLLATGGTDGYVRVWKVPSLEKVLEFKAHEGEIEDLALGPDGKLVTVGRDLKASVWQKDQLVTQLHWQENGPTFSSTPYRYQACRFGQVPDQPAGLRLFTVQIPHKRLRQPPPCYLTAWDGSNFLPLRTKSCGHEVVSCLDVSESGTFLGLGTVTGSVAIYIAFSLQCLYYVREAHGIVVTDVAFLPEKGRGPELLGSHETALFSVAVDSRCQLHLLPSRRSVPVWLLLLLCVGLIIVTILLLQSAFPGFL
# UniProt Q99633: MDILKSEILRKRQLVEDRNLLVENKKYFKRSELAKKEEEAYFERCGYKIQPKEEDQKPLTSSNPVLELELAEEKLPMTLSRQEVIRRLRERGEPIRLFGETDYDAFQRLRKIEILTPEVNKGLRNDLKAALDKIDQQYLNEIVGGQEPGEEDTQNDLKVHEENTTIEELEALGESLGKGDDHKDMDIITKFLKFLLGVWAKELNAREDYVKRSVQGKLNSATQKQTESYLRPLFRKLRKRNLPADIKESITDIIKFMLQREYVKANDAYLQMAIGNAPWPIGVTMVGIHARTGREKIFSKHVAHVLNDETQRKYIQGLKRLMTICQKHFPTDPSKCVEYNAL
# Some of the results follow.
# Columns and labels:
# Assay in all cases: log2 fold change, soluble protein after heating vs DMSO (PISA); higher = thermal stabilisation; K562 lysate, 10 uM; active = over 0.2 and 3.5 SD of the protein, either way, in both replicates (recomputed)
# alvocidib = compound: CN1CC[C@H](c2c(O)cc(O)c3c(=O)cc(-c4ccccc4Cl)oc23)[C@H](O)C1 [alvocidib]
# In short: (§1)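 Dounce homogenisation of K562 pellets in PBS pH 7.4 with 1 mM MgCl2 produced a crude extract, used at 1 mg/mL protein. Exposure to 10 μM compound lasted 30 min, and aliquots were then heated for 3 min across 48°C-58°C, pooled and brought to 0.5% NP-40 at 4°C. The supernatant after 21,000xg for 90 min was quantified by TMTpro 16plex LC-MS/MS with channel sums equalised. Duplicate values are given as log-two fold change in thermal stability relative to solvent controls.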
# Tubastatin A = compound: CN1CCc2c(c3ccccc3n2Cc2ccc(C(=O)NO)cc2)C1 [Tubastatin A]
# In short: as §1
# [1] = compound: CNC(=O)C1=CC=CC=C1NC2=NC(=NC=C2Cl)NC3=C(C=C(C=C3)N4CCOCC4)OC
# In short: as §1
# defactinib = compound: CNC(=O)c1ccc(Nc2ncc(C(F)(F)F)c(NCc3nccnc3N(C)S(C)(=O)=O)n2)cc1 [defactinib]
# In short: as §1
# [2] = compound: CNc1nc(-c2ccc3c(N)n[nH]c3c2)cc(N2C[C@@H](C(=O)NC3CCCCC3)CC[C@H]2C)n1
# In short: as §1
# encorafenib = compound: COC(=O)N[C@@H](C)CNc1nccc(-c2cn(C(C)C)nc2-c2cc(Cl)cc(NS(C)(=O)=O)c2F)n1 [encorafenib]
# In short: as §1
# [3] = compound: COC(=O)[C@H](CCSC)NC(=O)C1=C(C=C(C=C1)NC[C@H](CS)N)C2=CC=CC=C2
# In short: as §1
# alisertib = compound: COc1cc(Nc2ncc3c(n2)-c2ccc(Cl)cc2C(c2c(F)cccc2OC)=NC3)ccc1C(=O)O [alisertib]
# In short: as §1
# [4] = compound: COc1cc2nc(-c3cc(F)ccc3O)nc(N[C@@H]3CNC[C@H]3C(C)(C)O)c2cc1OC
# In short: as §1
# gefitinib = compound: COc1cc2ncnc(Nc3ccc(F)c(Cl)c3)c2cc1OCCCN1CCOCC1 [gefitinib]
# In short: as §1
# lapatinib = compound: CS(=O)(=O)CCNCc1ccc(-c2ccc3ncnc(Nc4ccc(OCc5cccc(F)c5)c(Cl)c4)c3c2)o1 [lapatinib]
# In short: as §1
# pictilisib = compound: CS(=O)(=O)N1CCN(Cc2cc3nc(-c4cccc5[nH]ncc45)nc(N4CCOCC4)c3s2)CC1 [pictilisib]
# In short: as §1
# crizotinib = compound: C[C@@H](Oc1cc(-c2cnn(C3CCNCC3)c2)cnc1N)c1c(Cl)ccc(F)c1Cl [crizotinib]
# In short: as §1
# [5] = compound: C[C@H](C1=CC=C(C=C1)C(=O)NC2=C3C=CNC3=NC=C2)N
# In short: as §1
# duvelisib = compound: C[C@H](Nc1ncnc2nc[nH]c12)c1cc2cccc(Cl)c2c(=O)n1-c1ccccc1 [duvelisib]
# In short: as §1
# gandotinib = compound: Cc1cc(Nc2cc(CN3CCOCC3)c3nc(C)c(Cc4ccc(Cl)cc4F)n3n2)n[nH]1 [gandotinib]
# In short: as §1
# tozasertib = compound: Cc1cc(Nc2cc(N3CCN(C)CC3)nc(Sc3ccc(NC(=O)C4CC4)cc3)n2)n[nH]1 [tozasertib]
# In short: as §1
# doramapimod = compound: Cc1ccc(-n2nc(C(C)(C)C)cc2NC(=O)Nc2ccc(OCCN3CCOCC3)c3ccccc23)cc1 [doramapimod]
# In short: as §1
# bafetinib = compound: Cc1ccc(NC(=O)c2ccc(CN3CC[C@H](N(C)C)C3)c(C(F)(F)F)c2)cc1Nc1nccc(-c2cncnc2)n1 [bafetinib]
# In short: as §1
# [6] = compound: Cc1cccc(CC(=O)N2CCc3c2ccc(-c2cn(C)c4ncnc(N)c24)c3F)n1
# In short: as §1
Target,log2 fold change (alvocidib),log2 fold change (Tubastatin A),log2 fold change [1],log2 fold change (defactinib),log2 fold change [2],log2 fold change (encorafenib),log2 fold change [3],log2 fold change (alisertib),log2 fold change [4],log2 fold change (gefitinib),log2 fold change (lapatinib),log2 fold change (pictilisib),log2 fold change (crizotinib),log2 fold change [5],log2 fold change (duvelisib),log2 fold change (gandotinib),log2 fold change (tozasertib),log2 fold change (doramapimod),log2 fold change (bafetinib),log2 fold change [6]
PRKCSH isoform 2 (UniProt P14314),inactive: -0.124,inactive: 0.002,inactive: -0.078,inactive: -0.011,inactive: -0.05,inactive: 0.039,inactive: -0.013,inactive: -0.079,inactive: -0.042,inactive: 0.092,inactive: 0.132,inactive: 0.072,inactive: -0.016,active: -0.622,inactive: 0.174,inactive: 0.293,inactive: 0.092,inactive: 0.136,inactive: 0.055,inactive: 0.24
PRPF39 (UniProt Q86UA1),inactive: 0.015,inactive: 0.033,inactive: 0.01,inactive: 0.008,inactive: -0.011,inactive: -0.009,inactive: 0.201,inactive: 0.025,inactive: 0.007,inactive: 0.006,inactive: -0.025,inactive: -0.061,inactive: -0.015,inactive: -0.073,inactive: -0.035,inactive: -0.05,inactive: 0.015,inactive: 0.047,inactive: -0.093,inactive: 0.105
PRKAG2 (UniProt Q9UGJ0),inactive: 0.094,inactive: -0.132,inactive: 0.245,inactive: 0.194,inactive: -0.183,inactive: 0.003,inactive: -0.129,inactive: -0.002,inactive: 0.098,inactive: -0.014,inactive: -0.041,inactive: 0.016,inactive: 0.063,inactive: -0.022,inactive: -0.028,inactive: 0.056,inactive: 0.134,inactive: 0.015,inactive: -0.044,inactive: -0.087
PPP1R8 (UniProt Q12972),inactive: -0.095,inactive: 0.028,inactive: -0.025,inactive: -0.003,inactive: 0.044,inactive: 0.028,inactive: -0.049,inactive: 0.022,inactive: -0.012,inactive: -0.05,inactive: 0.025,inactive: -0.008,inactive: 0.021,inactive: -0.236,inactive: -0.035,inactive: 0.108,inactive: -0.014,inactive: -0.011,inactive: -0.01,inactive: 0.091
PRPF4 (UniProt O43172),inactive: 0.078,inactive: 0.015,inactive: 0.027,inactive: -0.028,inactive: 0.049,inactive: -0.018,inactive: 0.008,inactive: 0.008,inactive: -0.006,inactive: -0.032,inactive: 0.014,inactive: 0.005,inactive: -0.013,inactive: 0.184,inactive: -0.046,inactive: -0.041,inactive: -0.005,inactive: 0.029,inactive: -0.017,inactive: -0.114
PPP3CC (UniProt P48454),inactive: 0.013,inactive: 0.004,inactive: -0.027,inactive: -0.017,inactive: -0.008,inactive: 0.073,inactive: -0.004,inactive: 0.014,inactive: 0.03,inactive: 0.005,inactive: -0.031,inactive: -0.005,inactive: 0.008,inactive: -0.06,inactive: -0.021,inactive: 0.017,inactive: -0.008,inactive: 0.059,inactive: -0.068,inactive: 0.014
PRIM1 (UniProt P49642),inactive: 0,inactive: -0.11,inactive: 0.023,inactive: -0.012,inactive: 0.033,inactive: 0.052,inactive: 0.041,inactive: -0.054,inactive: -0.019,inactive: -0.008,inactive: -0.02,inactive: 0.023,inactive: -0.064,inactive: 0.024,inactive: 0.004,inactive: -0.099,inactive: 0.027,inactive: -0.022,inactive: -0.077,inactive: 0.007
PPIF (UniProt P30405),inactive: -0.046,inactive: 0.041,inactive: -0.013,inactive: -0.009,inactive: 0.064,inactive: -0.03,inactive: -0.024,inactive: 0.009,inactive: 0.024,inactive: 0.004,inactive: -0.02,inactive: 0.006,inactive: -0.055,inactive: -0.176,inactive: 0.013,inactive: 0.103,inactive: 0.01,inactive: -0.007,inactive: -0.011,inactive: 0.1
PRKD2 isoform 3 (UniProt Q9BZL6),inactive: 0.01,inactive: -0.145,inactive: -0.125,inactive: 0.24,inactive: 0.024,inactive: 0.091,inactive: -0.001,inactive: -0.028,inactive: 0.238,inactive: -0.165,inactive: 0.087,inactive: -0.009,inactive: -0.043,inactive: -0.047,inactive: 0.05,inactive: -0.15,inactive: 0.019,inactive: -0.002,inactive: 0.02,inactive: -0.01
PRDX4 (UniProt Q13162),inactive: -0.073,inactive: 0.012,inactive: -0.027,inactive: -0.013,inactive: -0.014,inactive: 0.019,inactive: -0.037,inactive: 0.015,inactive: 0.003,inactive: -0.001,inactive: -0.01,inactive: 0.026,inactive: 0.053,inactive: -0.161,inactive: 0.026,inactive: 0.059,inactive: 0.036,inactive: 0.023,inactive: -0.007,inactive: 0.053
PPP1R12C isoform 4 (UniProt Q9BZL4),inactive: 0.012,inactive: -0.031,inactive: 0.035,inactive: -0.005,inactive: -0.003,inactive: -0.015,inactive: -0.022,inactive: -0.11,inactive: 0.012,inactive: 0.119,inactive: 0.045,inactive: 0.017,inactive: -0.047,inactive: -0.06,inactive: 0.014,inactive: 0.034,inactive: 0.008,inactive: -0.005,inactive: -0.001,inactive: 0.078
PPP1CB (UniProt P62140),inactive: -0.038,inactive: -0.003,inactive: 0.07,inactive: -0.027,inactive: -0.003,inactive: -0.032,inactive: -0.009,inactive: 0.004,inactive: 0,inactive: 0.016,inactive: 0.005,inactive: -0.014,inactive: 0.02,inactive: -0.024,inactive: -0.016,inactive: 0.007,inactive: 0.037,inactive: -0.007,inactive: -0.043,inactive: 0.007
PRMT7 (UniProt Q9NVM4),inactive: 0.017,inactive: -0.069,inactive: 0.024,inactive: -0.047,inactive: 0.002,inactive: 0.012,active: 0.286,inactive: -0.015,inactive: 0.007,inactive: 0,inactive: -0.006,inactive: 0,inactive: 0.025,inactive: -0.014,inactive: 0.035,inactive: -0.045,inactive: 0.039,inactive: -0.025,inactive: -0.01,inactive: -0.008
PPT1 (UniProt P50897),inactive: 0.01,inactive: -0.026,inactive: -0.049,inactive: 0.022,inactive: -0.01,inactive: 0.003,inactive: 0.145,inactive: -0.01,inactive: 0.011,inactive: 0.014,inactive: -0.01,inactive: -0.028,inactive: -0.013,inactive: 0.08,inactive: -0.038,inactive: -0.064,inactive: 0.094,inactive: -0.014,inactive: -0.019,inactive: -0.008
PREB (UniProt Q9HCU5),inactive: -0.018,inactive: -0.042,inactive: 0.011,inactive: 0.057,inactive: -0.003,inactive: -0.014,inactive: -0.077,inactive: -0.028,inactive: 0.017,inactive: 0.03,inactive: -0.038,inactive: -0.045,inactive: -0.009,inactive: -0.057,inactive: 0.049,inactive: 0.035,inactive: -0.001,inactive: 0.031,inactive: -0.02,inactive: -0.001
PRPF18 (UniProt Q99633),inactive: -0.004,inactive: -0.029,inactive: 0.016,inactive: 0.008,inactive: -0.007,inactive: -0.014,inactive: -0.163,inactive: -0.034,inactive: 0.017,inactive: 0.029,inactive: 0.012,inactive: -0.024,inactive: -0.011,inactive: -0.008,inactive: -0.034,inactive: -0.006,inactive: -0.021,inactive: 0.103,inactive: 0.015,inactive: 0.014

# Full records as entered above. Order of values: log2 fold change (alvocidib)	log2 fold change (Tubastatin A)	log2 fold change [1]	log2 fold change (defactinib)	log2 fold change [2]	log2 fold change (encorafenib)	log2 fold change [3]	log2 fold change (alisertib)	log2 fold change [4]	log2 fold change (gefitinib)	log2 fold change (lapatinib)	log2 fold change (pictilisib)	log2 fold change (crizotinib)	log2 fold change [5]	log2 fold change (duvelisib)	log2 fold change (gandotinib)	log2 fold change (tozasertib)	log2 fold change (doramapimod)	log2 fold change (bafetinib)	log2 fold change [6]
# PPT1 (UniProt P50897) is entered as inactive: 0.01	inactive: -0.026	inactive: -0.049	inactive: 0.022	inactive: -0.01	inactive: 0.003	inactive: 0.145	inactive: -0.01	inactive: 0.011	inactive: 0.014	inactive: -0.01	inactive: -0.028	inactive: -0.013	inactive: 0.08	inactive: -0.038	inactive: -0.064	inactive: 0.094	inactive: -0.014	inactive: -0.019	inactive: -0.008
# PRPF18 (UniProt Q99633) is entered as inactive: -0.004	inactive: -0.029	inactive: 0.016	inactive: 0.008	inactive: -0.007	inactive: -0.014	inactive: -0.163	inactive: -0.034	inactive: 0.017	inactive: 0.029	inactive: 0.012	inactive: -0.024	inactive: -0.011	inactive: -0.008	inactive: -0.034	inactive: -0.006	inactive: -0.021	inactive: 0.103	inactive: 0.015	inactive: 0.014
